The whole screen tested about 52,000 sequences, of which about 210 (0.4%) were called active.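 Rule for the calls: active = gene whose silencing raises cell survival under the drug, median off-target-corrected z-score across its silencing RNAs 2 or more; inactive = the rest.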 The list shows a part of the results.
Assay: Resistance to Poly (ADP-Ribose) Polymerase inhibitor: Gene Identification via Genome-wide siRNA Screen
Conditions: mouse BRCA2 R2336H ES cells, olaparib, CellTiter-Glo viability; stronger effect = higher value
Method in brief: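 Mouse BRCA2 R2336H ES cells were reverse-transfected with siRNA (20 nM final), treated at 48 h with 500 nM olaparib, and read by CellTiter-Glo after 72 h. Scores: MAD-based z per siRNA, median per gene, seed off-target correction.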

Sequence	z-score
GGUACCUCUUCUCCUAAAGTT against Vps16	inactive: 0.283
GGAACAUCCAGUCAUUUUATT against 4732429I09Rik	inactive: 0.367
GGAUCUUUCCAGGUUACAATT against Dmrta1	inactive: 0.663
GGAUCAUCAACCAUCUAAUTT against Sfrs7	inactive: -0.775
GCCAGUGUUGGUUAUAAAATT against G1p2	inactive: 0.0725
GGAUGAAUGCAGCUUCCAUTT against Myh14	inactive: 0.351
GGAAGCUGUCUUCAAGUCCTT against Phf7	inactive: 1.36
GGUCAAUGGCAUGUUGAUCTT against Mc2r	inactive: -0.394
GGGCACAGAGUGUAUCAUCTT against Wap	inactive: 0.426
GGGUCUUCUUCCUGAGUGUTT against 1190002A17Rik	inactive: -0.491
GGAAGUUCAAAUUUGAAUGTT against 5730466H23Rik	inactive: 1.55
GGAUUACGGAUCCAAAGUCTT against Eif2b4	inactive: -2.06
GGACUUUCUGGUCUGCCCUTT against Gli	inactive: -0.0198
CCAAUGAUGGAGCUGAAGCTT against Ranbp1	inactive: 0.439
GCCAUUGUUACUGACUGCCTT against 4931414L13Rik	inactive: -0.484
GGCAUGAUAAAGAAUGUCATT against Cxcl7	inactive: -1.38
GGGUUAAUCAUAAAGACUGTT against 9430071P14Rik	inactive: -0.443
GGUUAUCGUUCAGUUGGUCTT against Nfkb1	inactive: 0.0728
GGUGAUCGGCUCUUAGAGATT against Uncx4.1	inactive: 0.153
GCUUGGUACUACAAUGCCUTT against Sele	inactive: -0.649
GGUACUUCUCAUGGAUAAATT against Vps45	inactive: -1.05
CGAAGUGAAAAGUAUGACCTT against 1700108M19Rik	inactive: -0.726
CCAAGCGAAUGUCAAAAUATT against A230106N23	inactive: 0.232
GGUGAAGAGCUUCUUGAUCTT against Zfyve27	inactive: 0.536
CCCAGCUUUUCAACUUGCUTT against Tmc4	inactive: 0.714
GGUGGCAUACACAUUUGAUTT against Mvd	inactive: -1.25
GGAACCUCUUGGACAAAGATT against Cpne5	inactive: -2.57

Not a retest: an excerpt of the list.
Sequence	z-score
GGGUCUUCUUCCUGAGUGUTT against 1190002A17Rik	inactive: -0.491
GGAAGUUCAAAUUUGAAUGTT against 5730466H23Rik	inactive: 1.55
GGAUUACGGAUCCAAAGUCTT against Eif2b4	inactive: -2.06
GGACUUUCUGGUCUGCCCUTT against Gli	inactive: -0.0198
CCAAUGAUGGAGCUGAAGCTT against Ranbp1	inactive: 0.439
GCCAUUGUUACUGACUGCCTT against 4931414L13Rik	inactive: -0.484
GGCAUGAUAAAGAAUGUCATT against Cxcl7	inactive: -1.38
GGGUUAAUCAUAAAGACUGTT against 9430071P14Rik	inactive: -0.443
GGUUAUCGUUCAGUUGGUCTT against Nfkb1	inactive: 0.0728
GGUGAUCGGCUCUUAGAGATT against Uncx4.1	inactive: 0.153
GCUUGGUACUACAAUGCCUTT against Sele	inactive: -0.649
GGUACUUCUCAUGGAUAAATT against Vps45	inactive: -1.05
CGAAGUGAAAAGUAUGACCTT against 1700108M19Rik	inactive: -0.726
CCAAGCGAAUGUCAAAAUATT against A230106N23	inactive: 0.232

Following part

Sequence	z-score
CCUAAGUGCUCCAUGGUACTT against 2810438M17Rik	inactive: -1.25
GGUCAACAAGUAUAUCAACTT against 0610007A15Rik	inactive: 0.246
GGUUCCAAGUCAAAGAGUUTT against Foxl1	inactive: -1.74
GGUGUAUGCCAUUGAGACCTT against Metap2	inactive: 0.19
GGACAACAUUAAUGUCAAGTT against Rab3a	inactive: 0.967
GGAAAGUUGUAUUUGAUGUTT against Nudt7	inactive: 0.299
GGGCUUUUCAGACUGUUUGTT against Nrn1	inactive: -0.0371
GGAGUGCUUGAAGUUAUUATT against Zw10	inactive: 0.543
GGCCACUUCGUGUUCUUUUTT against Hoxa10	inactive: -2
GGUCUGGAAAACCAGCUUATT against D630039A03Rik	inactive: 0.495
GCUUCUAAUUGGAGAUUGCTT against Ngfrap1	inactive: 1.44
CGAGCUGUCCAAACACUGUTT against Mlf1ip	inactive: 0.1
GGAUGUACACAGAAGGCCATT against Sucnr1	inactive: -0.907
GCUGAAGGGACUCUAACCATT against Ihh	inactive: 0.928
GGAAGAGGCAGCUUUUGGATT against Impg2	inactive: -0.418
GGAAGAGCACUUGAGGAUGTT against Bat4	inactive: 2.17
GGAAUUUGAAACUUACGGCTT against Oc90	inactive: -0.682
CCCUAUAGACCAGUGCAAUTT against Cnih	inactive: 0.407
GCAAGAUUCAGAGUGCAGCTT against 4932441K18	inactive: -0.922
GGCCCUCAAAAAUAAGUUUTT against Hsd3b3	inactive: 0.491
CCUGUAUAGGCAGCCUAGATT against BC036313	inactive: -2.09
GGAUGAGGUAUUAACAAGUTT against 2310036O22Rik	inactive: -1.25
GCUUGGCUAUCAAAACUUCTT against DXImx40e	inactive: 1.58
GGAGACCAGGAAGUGUUGATT against Gal	inactive: -0.125
CCGCUGAUGAAGAUAGAGATT against 4931414P19Rik	inactive: -0.326
CGAUCCACUCCCUGAUUCUTT against Gpr151	inactive: -0.977
